For this assay, the system named is KRAS G12C mutation-positive human pancreatic cancer cell line MIA PaCa-2. The assay can be described thus: cells. To be noted: MIA PaCa-2, 120 h.

Usually GI50 stands for the concentration that inhibits growth by half. High values mean lower sensitivity of the cells, low ones greater sensitivity of the cells. As for `COc1cc2nc(C)nc(N[C@H](C)c3cc(N)cc(C(F)(F)F)c3)c2cc1O[C@H]1CCOC1` [BI3406], growth was halved (GI50) at 3.9 µM.
